In PMC12591158:
Results are given in words; binding and its absence hold for the method and conditions named. Binding seen in cells or lysates may run through a third protein. Binding can be weak; no strength is given. Where a sequence is shown, tags or fusion partners need not be part of it.

Sequences of proteins named here, by UniProt entry; tags and fusion partners are left off. A change or cut given only in a name is not applied to a line headed by its entry.
UniProt Q14790: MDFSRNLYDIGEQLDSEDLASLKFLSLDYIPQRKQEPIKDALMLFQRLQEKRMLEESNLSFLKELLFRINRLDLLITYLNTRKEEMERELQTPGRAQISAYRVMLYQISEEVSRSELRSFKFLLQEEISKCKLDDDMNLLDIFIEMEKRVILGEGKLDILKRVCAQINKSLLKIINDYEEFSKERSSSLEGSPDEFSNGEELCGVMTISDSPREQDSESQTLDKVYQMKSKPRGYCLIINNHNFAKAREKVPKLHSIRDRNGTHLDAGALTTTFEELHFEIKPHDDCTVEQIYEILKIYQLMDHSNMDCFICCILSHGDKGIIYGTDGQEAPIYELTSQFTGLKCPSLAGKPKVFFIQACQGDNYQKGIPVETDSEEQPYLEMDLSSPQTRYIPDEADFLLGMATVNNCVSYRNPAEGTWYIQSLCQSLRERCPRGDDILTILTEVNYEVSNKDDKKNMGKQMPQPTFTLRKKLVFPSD
UniProt P0DTC6: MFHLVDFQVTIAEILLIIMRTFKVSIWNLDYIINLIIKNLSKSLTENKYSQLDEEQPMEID

Molecular target: Myc-CASP8-C (C-terminal construct of caspase-8, small subunit p10) (human) (UniProt Q14790)
Test: co-IP

B1: GFP-ORF6-52-61 (peptide, UniProt P0DTC6 52-61)
chain: LDEEQPMEID
  binding: binds

B2: GFP-ORF6-C (C-terminal domain of SARS-CoV-2 ORF6) (domain or fragment, UniProt P0DTC6 43-61)
chain: SLTENKYSQLDEEQPMEID
  binding: binds
